These are yes or no findings as the source states them, for the method shown. In cells and extracts the contact can be indirect. Some results given as binding are weak or reduced against the parent protein; the word gives no strength.

Chains of the proteins cited; added tags and fusions are not shown. Residues count along the entry.
UniProt O14957: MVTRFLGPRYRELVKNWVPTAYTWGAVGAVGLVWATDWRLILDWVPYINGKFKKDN
UniProt P10176, residues 26-69: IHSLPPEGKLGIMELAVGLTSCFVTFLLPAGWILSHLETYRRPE

The target of the experiment is CIIIk-Clover (UniProt O14957). As to the kind of experiment: FRET or BRET; FLIM-FRET in live cells transiently transfected with the donor alone (CIIIk-Clover) or with donor and acceptor (CoxVIIIa-mRuby2); Clover lifetime from bi-exponential fits of TCSPC decays; 37 °C, 5% CO2.

In the case of “CoxVIIIa-mRuby2 (from UniProt P10176 26-69)”, the binding entry is “binds”.

Values taken from publication PMC5382582.
